Reference: US20190256843A1 (AGILENT TECHNOLOGIES, published 2019)
These are yes or no findings as the source states them, for the method shown. Some results given as binding are weak or reduced against the parent protein; the word gives no strength. Sequences can lack the tags named with a protein.

Chains of the proteins cited; added tags and fusions are not shown. Residues count along the entry.
UniProt P46934, residues 767-800: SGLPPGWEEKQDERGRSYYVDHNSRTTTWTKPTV
UniProt P46935, residues 405-438: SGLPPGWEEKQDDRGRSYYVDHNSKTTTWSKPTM

Legend:
[1] = target: T1, N-terminal split mCherry fused to …; assay: BiFC split mCherry in E. coli, FACS
T1 sequence: IPGTPPPNYD

[2] = target: T1, N-terminal split mCherry fused to …; assay: clonal BiFC split mCherry in E. coli

binding [1] | binding [2] | Substance
binds |  | human NEDD4 WW2 domain fused to C-terminal split mCherry with 6xHis tag (from UniProt P46934 767-800)
 | binds | mouse Nedd4 WW2 fused to C-terminal split mCherry (from UniProt P46935 405-438)
